# Assay results from article PMC9681215.
# No constants are given. Whether binding was seen depends on the method and setting. In cells and extracts the contact can be indirect. Some results given as binding are weak or reduced against the parent protein; the word gives no strength. Where a sequence is shown, tags or fusion partners need not be part of it.
# T1: Sloth1-FLAG (D. melanogaster) (UniProt Q9W3T5)
# T1 sequence: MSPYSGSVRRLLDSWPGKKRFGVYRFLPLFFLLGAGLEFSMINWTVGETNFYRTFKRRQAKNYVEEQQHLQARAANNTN
# T2: Sloth2-FLAG (D. melanogaster) (UniProt B7Z0X7)
# T2 sequence: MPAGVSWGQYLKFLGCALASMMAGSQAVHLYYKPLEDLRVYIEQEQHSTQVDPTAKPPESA
# Assays:
# [1] = target: T1, Sloth1-FLAG (D. melanogaster); assay: co-IP; FLAG-tagged bait held on magnetic anti-FLAG beads, 2 hr at 4 °C; lysate of mitochondria isolated from transfected S2R+ cells; 50 mM Tris-HCl pH 7.4, 150 mM NaCl, 10% glycerol, 20 mM MgCl2, 1% digitonin; eluted with 3xFLAG peptide; HA-tagged prey detected by western blot
# [2] = target: T2, Sloth2-FLAG (D. melanogaster); assay: as above
binder,measurement,setting,value
"CG10075-HA (protein, UniProt Q9VRZ7 1-259) MQCTRAVARLAGGLARTAWATQHTYKHRPAILGLLEQPCRLCSSTGVVDNTNKTKPGTAEAAEGGILKRVLNKVGFTPNTKARLKVTSHLLYESVADKINYVTFFRDFNLPNTFNSWFLVTELHVWLLLMRSMAEGSETGEDGRFLRNCIVEAMWGDVNTRAKKLGAHNPSRTRQQIETLSEQFQAALIAYDEGIMSDDRVLACALWRRFFEMNCDDYAQIERLVKYVRQQASMLDSLPRDQFIVKPKVAWLELDKCKV",binding,[1],binds
"RFeSP-HA (protein, UniProt Q9VQ29 36-230) AHTDLQVPDFSAYRRESVKDSRRRNDTAEERKAFSYLMVGAGAVGGAYAAKGLVNTFIGSMSASAEVLAMAKIEIKLSDIPEGKSVTFKWRGKPLFIRHRTAAEIETERNVPTSTLRDPEADDQRVIKPEWLVVIGVCTHLGCVPIANAGDWGGYYCPCHGSHYDASGRIRKGPAPLNLEVPTHEFPNEGLLVVG",binding,[1],binds
"Sloth2-HA (peptide, UniProt B7Z0X7 1-61) MPAGVSWGQYLKFLGCALASMMAGSQAVHLYYKPLEDLRVYIEQEQHSTQVDPTAKPPESA",binding,[1],binds
"Sloth1-HA (peptide, UniProt Q9W3T5 1-79) MSPYSGSVRRLLDSWPGKKRFGVYRFLPLFFLLGAGLEFSMINWTVGETNFYRTFKRRQAKNYVEEQQHLQARAANNTN",binding,[2],binds
